# Measurements reported in the supplement of paper PMC8728848.
# The list shows a part of the results.
# Tests used:
# Assay in all cases: glycan array binding signal (z-score within array); higher = stronger binding
# Conditions in all cases: glycan notation: IUPAC condensed, linker removed
# [1] = molecular target: Gal3S(b1-3)[Fuc(a1-4)]GlcNAc
# Method in brief: (§1)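 The binding signal is a Z-score computed within each array. Data were drawn from 3228 arrays in the Consortium for Functional Glycomics database, restricted to those with a known protein sequence. Scores were averaged over arrays of the same protein sequence at different concentrations or buffers, and over linkers, and negative values can be taken as non-binding.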
# Gal3S(b1-4)Glc = molecular target: Gal3S(b1-4)Glc
# Method in brief: as §1
# Gal3S(b1-4)Glc6S = molecular target: Gal3S(b1-4)Glc6S
# Method in brief: as §1
# Gal3S(b1-4)GlcNAc = molecular target: Gal3S(b1-4)GlcNAc
# Method in brief: as §1
# [2] = molecular target: Gal3S(b1-4)[Fuc(a1-3)]Glc6S
# Method in brief: as §1
# [3] = molecular target: Gal3S(b1-4)[Fuc(a1-3)]GlcNAc
# Method in brief: as §1
# [4] = molecular target: Gal3S(b1-4)[Fuc(a1-3)]GlcNAc6S
# Method in brief: as §1
# Gal3S4S(b1-4)GlcNAc = molecular target: Gal3S4S(b1-4)GlcNAc
# Method in brief: as §1
# Gal3S6S(b1-4)GlcNAc = molecular target: Gal3S6S(b1-4)GlcNAc
# Method in brief: as §1
# Gal3S6S(b1-4)GlcNAc6S = molecular target: Gal3S6S(b1-4)GlcNAc6S
# Method in brief: as §1
# Gal4S(b1-4)GlcNAc = molecular target: Gal4S(b1-4)GlcNAc
# Method in brief: as §1
# Gal4S6S(b1-4)GlcNAc = molecular target: Gal4S6S(b1-4)GlcNAc
# Method in brief: as §1
# Gal6P(b1-4)GlcNAc = molecular target: Gal6P(b1-4)GlcNAc
# Method in brief: as §1
# Gal6S(b1-3)GlcNAc = molecular target: Gal6S(b1-3)GlcNAc
# Method in brief: as §1
# Gal6S(b1-3)GlcNAc6S = molecular target: Gal6S(b1-3)GlcNAc6S
# Method in brief: as §1
# Gal6S(b1-4)Glc = molecular target: Gal6S(b1-4)Glc
# Method in brief: as §1
# Gal6S(b1-4)Glc6S = molecular target: Gal6S(b1-4)Glc6S
# Method in brief: as §1
# Gal6S(b1-4)GlcNAc = molecular target: Gal6S(b1-4)GlcNAc
# Method in brief: as §1
# Gal6S(b1-4)GlcNAc6S = molecular target: Gal6S(b1-4)GlcNAc6S
# Method in brief: as §1
# GalNAc(a1-3)Gal = molecular target: GalNAc(a1-3)Gal
# Method in brief: as §1
# GalNAc(a1-3)GalNAc = molecular target: GalNAc(a1-3)GalNAc
# Method in brief: as §1
# [5] = molecular target: GalNAc(a1-3)GalNAc(b1-3)Gal(a1-4)Gal(b1-4)Glc
# Method in brief: as §1
# [6] = molecular target: GalNAc(a1-3)GalNAc(b1-3)Gal(a1-4)Gal(b1-4)GlcNAc
# Method in brief: as §1
# GalNAc(b1-3)Gal = molecular target: GalNAc(b1-3)Gal
# Method in brief: as §1
# [7] = molecular target: GalNAc(b1-3)Gal(a1-4)Gal(b1-4)GlcNAc
# Method in brief: as §1
# [8] = molecular target: GalNAc(b1-3)Gal(a1-4)Gal(b1-4)GlcNAc(b1-3)Gal(b1-4)Glc
# Method in brief: as §1
# [9] = molecular target: GalNAc(b1-3)Gal(a1-6)Gal(b1-4)Glc
# Method in brief: as §1
# GalNAc(b1-3)GalNAc = molecular target: GalNAc(b1-3)GalNAc
# Method in brief: as §1
# GalNAc(b1-3)GlcNAc = molecular target: GalNAc(b1-3)GlcNAc
# Method in brief: as §1
# GalNAc(b1-4)Gal(b1-4)Glc = molecular target: GalNAc(b1-4)Gal(b1-4)Glc
# Method in brief: as §1
# GalNAc(b1-4)GlcNAc = molecular target: GalNAc(b1-4)GlcNAc
# Method in brief: as §1
# [10] = molecular target: GalNAc(b1-4)GlcNAc(b1-2)Man
# Method in brief: as §1
# [11] = molecular target: GalNAc(b1-4)GlcNAc(b1-2)Man(a1-3)[GalNAc(b1-4)GlcNAc(b1-2)Man(a1-6)]Man(b1-4)GlcNAc(b1-4)GlcNAc
# Method in brief: as §1
# [12] = molecular target: GalNAc(b1-4)GlcNAc(b1-3)GalNAc(b1-4)GlcNAc
# Method in brief: as §1
# GalNAc(b1-4)GlcNAc6S = molecular target: GalNAc(b1-4)GlcNAc6S
# Method in brief: as §1
# GalNAc(b1-6)GalNAc = molecular target: GalNAc(b1-6)GalNAc
# Method in brief: as §1
# GalNAc3S(b1-4)GlcNAc = molecular target: GalNAc3S(b1-4)GlcNAc
# Method in brief: as §1
binder,measurement,setting,value
"RsaA-N-term (Caulobacter crescentus), P35828 (protein) MAYTTAQLVTAYTNANLGKAPDAATTLTLDAYATQTQTGGLSDAAALTNTLKLVNSTTAVAIQTYQFFTGVAPSAAGLDFLVDSTTNTNDLNDAYYSKFAQENRFINFSINLATGAGAGATAFAAAYTGVSYAQTVATAYDKIIGNAVATAAGVDVAAAVAFLSRQANIDYLTAFVRANTPFTAAADIDLAVKAALIGTILNAATVSGIGGYATATAAMINDLSDGALSTDNAAGVNLFTAYPSSGVSGSTLSLTTGTDTLTGTANNDTFVAGEVAGDGSGWSHPQFEKGG",glycan array binding signal (z-score),[1],-0.524
same,glycan array binding signal (z-score),Gal3S(b1-4)Glc,-0.58
same,glycan array binding signal (z-score),Gal3S(b1-4)Glc6S,1.58
same,glycan array binding signal (z-score),Gal3S(b1-4)GlcNAc,1.08
same,glycan array binding signal (z-score),[2],0.043
same,glycan array binding signal (z-score),[3],0.923
same,glycan array binding signal (z-score),[4],0.377
same,glycan array binding signal (z-score),Gal3S4S(b1-4)GlcNAc,0.355
same,glycan array binding signal (z-score),Gal3S6S(b1-4)GlcNAc,1.45
same,glycan array binding signal (z-score),Gal3S6S(b1-4)GlcNAc6S,-0.759
same,glycan array binding signal (z-score),Gal4S(b1-4)GlcNAc,-0.165
same,glycan array binding signal (z-score),Gal4S6S(b1-4)GlcNAc,-0.176
same,glycan array binding signal (z-score),Gal6P(b1-4)GlcNAc,0.149
same,glycan array binding signal (z-score),Gal6S(b1-3)GlcNAc,1.4
same,glycan array binding signal (z-score),Gal6S(b1-3)GlcNAc6S,3.01
same,glycan array binding signal (z-score),Gal6S(b1-4)Glc,-0.512
same,glycan array binding signal (z-score),Gal6S(b1-4)Glc6S,-0.895
same,glycan array binding signal (z-score),Gal6S(b1-4)GlcNAc,-0.724
same,glycan array binding signal (z-score),Gal6S(b1-4)GlcNAc6S,0.014
same,glycan array binding signal (z-score),GalNAc(a1-3)Gal,-0.212
same,glycan array binding signal (z-score),GalNAc(a1-3)GalNAc,0.039
same,glycan array binding signal (z-score),[5],0.787
same,glycan array binding signal (z-score),[6],0.104
same,glycan array binding signal (z-score),GalNAc(b1-3)Gal,-0.084
same,glycan array binding signal (z-score),[7],-1.24
same,glycan array binding signal (z-score),[8],2.08
same,glycan array binding signal (z-score),[9],-0.027
same,glycan array binding signal (z-score),GalNAc(b1-3)GalNAc,0.812
same,glycan array binding signal (z-score),GalNAc(b1-3)GlcNAc,0.169
same,glycan array binding signal (z-score),GalNAc(b1-4)Gal(b1-4)Glc,0.597
same,glycan array binding signal (z-score),GalNAc(b1-4)GlcNAc,0.502
same,glycan array binding signal (z-score),[10],0.558
same,glycan array binding signal (z-score),[11],-0.594
same,glycan array binding signal (z-score),[12],-0.44
same,glycan array binding signal (z-score),GalNAc(b1-4)GlcNAc6S,0.38
same,glycan array binding signal (z-score),GalNAc(b1-6)GalNAc,-0.64
same,glycan array binding signal (z-score),GalNAc3S(b1-4)GlcNAc,-0.554

# Part of the list above, with bars between the fields.
binder | measurement | setting | value
RsaA-N-term (Caulobacter crescentus), P35828 (protein) MAYTTAQLVTAYTNANLGKAPDAATTLTLDAYATQTQTGGLSDAAALTNTLKLVNSTTAVAIQTYQFFTGVAPSAAGLDFLVDSTTNTNDLNDAYYSKFAQENRFINFSINLATGAGAGATAFAAAYTGVSYAQTVATAYDKIIGNAVATAAGVDVAAAVAFLSRQANIDYLTAFVRANTPFTAAADIDLAVKAALIGTILNAATVSGIGGYATATAAMINDLSDGALSTDNAAGVNLFTAYPSSGVSGSTLSLTTGTDTLTGTANNDTFVAGEVAGDGSGWSHPQFEKGG | glycan array binding signal (z-score) | Gal3S4S(b1-4)GlcNAc | 0.355
same | glycan array binding signal (z-score) | Gal3S6S(b1-4)GlcNAc | 1.45
